At least one structure is not confirmed: it was looked up by name or label, or the drawing left a doubt.
Test system: hPSC-derived day-3 trunk artery cells
Assay: Differentiation of hPSC-derived day-3 trunk artery cells into hemogenic endothelium / HSC-like cells (qPCR, flow cytometry)
Assay type: cell-based, human
Conditions: 24 hours, OSM and LIF withheld together
Protocol: FIG. 4: Efficient generation of trunk artery and hemogenic endothelium from hPSCs within 3 and 6 days, respectively. A) Cartoon of the strategy to generate trunk artery, hemogenic endothelium and HSC-like cells. B) Retinoic acid (RA) signaling induces HOXA1-5 genes in hPSC-derived trunk artery cells; day 1 hPSC-derived primitive streak cells were differentiated into trunk artery cells over the course of 48 hours, in the presence or absence of an RA agonist (TTNPB). C) Flow cytometry (left) and qPCR (right) of hPSC-derived trunk artery cells; for the qPCR data, gene expression is normalized for each gene to undifferentiated hPSCs (gene expression levels in hPSCs=1.0); as a negative control, hPSC-derived artery cells (white bar, generated in the absence of RA agonist) is shown. D) hPSC-derived day-3 trunk artery cells were differentiated into hemogenic endothelium for 24 hours in the complete hemogenic endothelium medium (Forskolin, SB505124, OSM and LIF), or in media where either Forskolin was withheld; SB505124 was withheld; or both OSM and LIF were withheld.
FIG. 12: Optimizing the generation of trunk artery, hemogenic endothelium and HSC-like cells from hPSCs. […]
Quantitative PCR. […]

C=C[C@@]1(C)CC(=O)[C@]2(O)[C@@]3(C)[C@@H](O)CCC(C)(C)[C@@H]3[C@H](O)[C@H](OC(C)=O)[C@@]2(C)O1 [Forskolin]
RUNX1 expression by day 4 upon individual withdrawal of the agent from hemogenic endothelium medium: reduced
